Reference: PubChem BioAssay AID2711 (National Center for Advancing Translational Sciences (NCATS), 2010)
The shares of active, inactive and inconclusive entries below differ from those in the screen. Potencies of inconclusive entries are doubtful fits and often do not repeat. The source made the active and inactive calls. The call rests on the fitted dose curve; in most records, active means well fitted inhibition curve with a large enough effect; inconclusive means small, poorly fitted or top-dose-only effect; inactive means no such curve, though single readings can be large or run the other way.
On the % scale 0 is the no-effect control and ±100 the full control effect; potency means the concentration at half of the fitted maximal effect.

Assay: Counterscreen for RECQ1 Inhibitors: ADP Fluorescence Polarization Displacement Assay; further: nearly all actives have a fitted effect of over 45% in size
Details: series mostly up to 228 µM; activity change, negative = inhibition: at the top concentration
Description: In order to gain further insight into the mode of action of the RECQ1 screening hits, we have profiled them in a set of miniaturized fluorescence polarization assays designed to report on compounds which competitively displace either co-substrate (ATP or DNA). The appropriate fluorescently-labeled probe was used: BODIPY Texas Red-labeled ADP was expected to be competed off by ATP-competitive inhibitors, while single-TAMRA labeled forked-duplex or short single-stranded DNA molecules served as probes for DNA-competitive compounds.
Three uL of reaction buffer (25 mM Tris-HCl (pH 8.0), 5 mM NaCl, 2 mM MgCl2, 1mM DTT, 0.01% Tween- 20, and 2.5 ug/ml poly(dI-dC), containing 300 nM RECQ1 and 500 nM BODIPY Texas Red-ADP (Invitrogen) were dispensed into a 1536-well Greiner black assay plate via solenoid-valve based nanoliter dispensers; 500 nM BODIPY Texas Red-ADP without RECQ1 protein served as a fully-displaced control. Compounds (23 nl each in columns 5-48) were transferred via a Kalypsys pintool equipped with a 1536-pin array. The plates were incubated for 15 min at room temperature and were then transferred into a ViewLux high-throughput CCD imager, where the endpoint fluorescence polarization was measured using 525 nm excitation and 598 nm emission protocol.
In the case of O=C1CCCC2=C1C(c1ccc(O)c(O)c1)c1c(ccc3ncccc13)N2 (stereo not given), the Potency was inconclusive: 28.2 µM [inhibitor, partial curve].
For O=C(N/N=C/c1ccc(F)cc1)c1cc(-c2ccco2)nc2ccccc12, the Potency was inconclusive: 39.8 µM [inhibitor, partial curve].
With O=C(NC(Cc1c[nH]c2ccccc12)C(=O)O)/C(=C/c1ccc2c(c1)OCO2)NC(=O)c1ccccc1 (stereo not given) the Potency was inconclusive: 70.8 µM [inhibitor, partial curve, poor fit].
For O=C1C(C2=NC(C(=O)O)C3C(=O)N(c4ccccc4)C(=O)C23)=C(O)c2ccccc21 (stereo not given), the Potency was inconclusive: 0.0794 µM [inhibitor, full curve, poor fit].
For Cc1nn(CCc2nc(-c3ccco3)cs2)c2[nH]c(=O)cc(C(F)(F)F)c12, the Potency was inconclusive: 44.7 µM [inhibitor, partial curve].
For O=C(O)c1ccc(Cl)c(NC(=O)C2CCCN2S(=O)(=O)c2cccc3nsnc23)c1 (stereo not given), the “activity change, negative = inhibition” value was inactive: 1.43%.
With COc1cc(-c2nnc(SCc3cc(=O)oc4cc(O)c(O)cc34)o2)cc(OC)c1OC the Potency was active: 126 µM.
With O=C(O[C@@H]1Cc2c(O)cc(O)cc2OC1c1ccc(O)c(O)c1)c1cc(O)c(O)c(O)c1 (stereo not given in full) the Potency was inconclusive: 4.47 µM [inhibitor, full curve].
For CCOC(=O)C1CCc2sc(N)c(C#N)c21 (stereo not given), the “activity change, negative = inhibition” value was inactive: -1.29% [at 91.9 µM].
In the case of O=C(/C=C/c1ccccc1)NCCc1ccccc1, the Potency was inconclusive: 56.2 µM [inhibitor, partial curve, poor fit].
For Clc1ccccc1-c1nnc2sc(C3COc4ccccc4O3)nn12 (stereo not given), the Potency was inconclusive: 39.8 µM [inhibitor, partial curve].
With O=C(O)c1ccc(NC(CSCc2ccc(F)cc2)C(=O)O)c([N+](=O)[O-])c1 (stereo not given) the “activity change, negative = inhibition” value was inactive: -5.61%.
For CCc1cc(=O)oc2cc(C)c(CN3CCCCC3)c(O)c12, the Potency was active: 63.1 µM.
With Cc1cccc(N2CCN(C(=O)Cc3ccc(-n4c(=O)[nH]c5ccsc5c4=O)cc3)CC2)c1C the “activity change, negative = inhibition” value was inactive: 20.9%.
For CCC1(CC)NC(=O)N(CC(=O)Nc2sc3c(c2C(N)=O)CCC3)C1=O, the Potency was inconclusive: 89.1 µM [inhibitor, single point].
With O=C(O)CCC(=O)Nc1nc2nc(-c3ccccc3)cc(-c3ccccc3)n2n1 the Potency was inconclusive: 112 µM [inhibitor, single point].
With CN(C)c1ccc(/C=C/C=C2/SC(=S)N(c3ccccc3)C2=O)cc1 the Potency was inconclusive: 8.91 µM [inhibitor, partial curve, poor fit].
In the case of COc1ccc(NC(=O)CCNS(=O)(=O)c2ccc3c(c2)CCC(=O)N3)cc1, the Potency was inconclusive: 126 µM [inhibitor, partial curve].
With CCCn1c(CCC(=O)O)nc2cc(S(=O)(=O)N3CCCC3)ccc21 the Potency was inconclusive: 141 µM [inhibitor, single point].
With O=C(NCC1CCCO1)c1onc(CSc2cccc3ccccc23)c1C(=O)O (stereo not given) the “activity change, negative = inhibition” value was inactive: 1.62%.
With Cn1c(SCC(=O)Nc2ccc3nc(SCC(=O)N4CCCC4)sc3c2)nnc1-c1ccc(N)cc1 the Potency was inconclusive: 14.1 µM [inhibitor, single point].
For O=C(Cn1nc(C(=O)O)c2ccccc2c1=O)Nc1nc(-c2ccccc2)cs1, the “activity change, negative = inhibition” value was inactive: 6.65%.
In the case of COc1cc(NC(=O)c2cccs2)c(C(=O)OCC(=O)NCc2ccco2)cc1OC, the Potency was inconclusive: 89.1 µM [inhibitor, single point].
For Cc1ccc(C)n1-c1sc2c(c1C(=O)O)CCCC2, the Potency was inconclusive: 14.1 µM [inhibitor, partial curve, poor fit].
For CC1Cc2ccccc2N1C(=O)CSc1nnc(-c2ccc(S(=O)(=O)N3CCOCC3)cc2)n1C (stereo not given), the Potency was inconclusive: 50.1 µM [inhibitor, single point].
With O=C(O)CCC(=O)N1CCc2cc(S(=O)(=O)N3CC=C(c4ccccc4)CC3)ccc21 the Potency was inconclusive: 200 µM [inhibitor, partial curve, poor fit].
With Cc1noc(C)c1COc1ccc(C(=O)Nc2cccnc2)cc1 the Potency was active: 126 µM.
With O=C(CSc1nc2ccccc2c(=O)[nH]1)c1ccc(O)c(O)c1 the Potency was inconclusive: 5.01 µM [inhibitor, partial curve, poor fit].
For COc1ccccc1-n1c(SCC(=O)O)nnc1-c1ccc(S(=O)(=O)N2CCCCC2)cc1, the “activity change, negative = inhibition” value was inactive: 1.9%.
In the case of COc1cc(N(C)C)cc(CN(C)CCc2ccc([N+](=O)[O-])cc2)c1O, the Potency was inconclusive: 126 µM [inhibitor, partial curve, poor fit].
For COc1ccc(C(=O)Nc2cccnc2)cc1, the Potency was inconclusive: 112 µM [inhibitor, partial curve, poor fit].
For CC(C)C(NS(=O)(=O)c1cccc2nsnc12)C(=O)N1CCn2c1nc1ccccc12 (stereo not given), the Potency was inconclusive: 79.4 µM [inhibitor, partial curve, poor fit].
With O=C(O)CC/C(=C\c1ccc(N2CCOCC2)c([N+](=O)[O-])c1)c1nc2ccccc2s1 the Potency was inconclusive: 100 µM [inhibitor, single point].
With O=C(O)CCCCn1c(SCc2ccccc2Cl)nc2ccsc2c1=O the “activity change, negative = inhibition” value was inactive: 3.08%.
With Cc1cc(C)cc(NC(=O)c2nnn(Cc3cc(C)ccc3C)c2N)c1 the Potency was inconclusive: 39.8 µM [inhibitor, partial curve].
For CCOC(=O)C(C)Oc1cccc2c(=O)n(CC(=O)NCc3ccc4c(c3)OCO4)ccc12 (stereo not given), the Potency was inconclusive: 35.5 µM [inhibitor, partial curve].
In the case of Oc1ccc(Nc2nc(NCC3CCCO3)c3ccccc3n2)cc1 (stereo not given), the Potency was inconclusive: 0.0079 µM [inhibitor, full curve, poor fit].
With O=C(CSc1ccc(Cl)cc1)N1CCN(c2c(Cl)cccc2[N+](=O)[O-])CC1 the “activity change, negative = inhibition” value was inactive: -4.33% [at 91.9 µM].
In the case of CC(Sc1nnc(COc2ccc(Cl)cc2)n1Cc1ccccc1)C(=O)O (stereo not given), the “activity change, negative = inhibition” value was inactive: 1.42%.
With CN1CCN(c2ccc(Nc3c4ccccc4nc4ccccc34)cc2)CC1 the Potency was active: 35.5 µM.
